Results from publication PMC4804309.

Key:
GST-MaWRKY26 [1] = experiment: EMSA; details: shift abolished by unlabeled self competitor; 25 mM HEPES-KOH pH 7.5, 100 mM KCl, 0.1 mM EDTA, 17% glycerol, 1 mM DTT, 50 ng protein, ~1 pmol probe, 20 uL, 25 min at 22 C; recombinant protein; protein details: N-terminal GST (pGEX-4T-1); label: 5' biotin
GST-MaWRKY26 [2] = experiment: competition with a labelled probe; details: 25 mM HEPES-KOH pH 7.5, 100 mM KCl, 0.1 mM EDTA, 17% glycerol, 1 mM DTT, 50 ng protein, ~1 pmol probe, 20 uL, 25 min at 22 C, recombinant protein, protein details: N-terminal GST (pGEX-4T-1)
GST = experiment: EMSA; details: GST alone, same outcome stated for N3 and N5; 25 mM HEPES-KOH pH 7.5, 100 mM KCl, 0.1 mM EDTA, 17% glycerol, 1 mM DTT, 50 ng protein, ~1 pmol probe, 20 uL, 25 min at 22 C; recombinant protein; label: 5' biotin

Q: Does “GGAGAGGAGAGGAGAGGGGGTTGAACTTTGACCACTTGAAAGCGTGGAACCTGCTTTG (double strand) [MaOPR3 promoter probe]” bind (GST-MaWRKY26 [1])?
A: Result: binds

Q: Does “TTTATTTTTTTGACCAATGGATTCGACTCCACGTGTCTATTTGACCGCTGTACACTTC (double strand) [MaAOS3 promoter probe]” bind (GST-MaWRKY26 [1])?
A: Result: binds

Q: Does “TTTATTTTTAAAAAAAATGGATTCGACTCCACGTGTCTATAAAAAAGCTGTACACTTC (double strand) [MaAOS3 mutant probe]” bind (GST-MaWRKY26 [2]; mutated probe did not abolish binding to N3 (legend: mutant probe incubated with protein))?
A: Result: no binding

Q: Does “GAGATCGCCATGTCCCTTTATTGGAGAAATTGACTTGGCAGATCGAACTCAACAATCA (double strand) [MaLOX2 promoter probe]” bind (GST)?
A: Result: no binding

Q: Does “GAGATCGCCATGTCCCTTTATTGGAGAAATTGACTTGGCAGATCGAACTCAACAATCA (double strand) [MaLOX2 promoter probe]” bind (GST-MaWRKY26 [1])?
A: Result: binds

Q: Does “GGAGAGGAGAGGAGAGGGGGTTGAACAAAAAAAACTTGAAAGCGTGGAACCTGCTTTG (double strand) [MaOPR3 mutant probe]” bind (GST-MaWRKY26 [2]; mutated probe did not abolish binding to N5 (legend: mutant probe incubated with protein))?
A: Result: no binding

Q: Does “GAGATCGCCATGTCCCTTTATTGGAGAAAAAAAAATGGCAGATCGAACTCAACAATCA (double strand) [MaLOX2 mutant probe]” bind (GST-MaWRKY26 [2]; mutated probe did not abolish binding to N1 (legend: mutant probe incubated with protein))?
A: Result: no binding

For at least one entry, the source does not settle the construct or the ends of the probe. For some of these results: Negatives hold for the conditions tested.
